Results deposited as PubChem BioAssay AID1053208 (Peter MacCallum Cancer Centre, 2014).
Screen: 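Find knock-downs that sensitise mouse osteosarcoma cells to doxorubicin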 (primary screen). System: mouse osteosarcoma cells, early-passage culture from an engineered mouse model of fibroblastic bone tumour. Reagent: siRNA pool against mouse genes, 40 nM. Timing: about 120 h (48 h before drug, then 72 h with drug). Treatment: doxorubicin 100 nM for 72 h, roughly 30-40% inhibitory dose. Read-out: 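Luminescent ATP signal taken as viability with or without 100 nM doxorubicin for 72 h; mean of two wells set against non-targeting siRNA and turned into robust z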. Direction: viability z-score with doxorubicin: higher = more viable cells under doxorubicin; viability z-score without drug: higher = more viable cells with knock-down alone. Active means: 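a pool counts as active when its viability z-score with doxorubicin is -2 or below and its z-score without drug lies between -2 and 2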.
Shown is one part, drawn at random, of about 17,000 reagents. 788 of all reagents (4.7%) count as active. 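Calls rest on z-score classes alone; an extra cut-off of viability at most 70% of control was not applied to them.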 Reagents against one gene are numbered here. Not all columns of the deposit are shown.

combined z-score class | viability z-score with doxorubicin | viability z-score without drug | Call | Target gene | pool no.
low cell count with doxorubicin only | -2.81 | -1.85 | active | Tmem109 (GeneID 68539) | 1
no change with or without drug | 1.8 | 0.84 | inactive | Il16 (GeneID 16170) | 1
high cell count without drug only | -0.22 | 2.02 | inactive | Ear1 (GeneID 13586) | 1
no change with or without drug | -1.12 | -0.51 | inactive | Ppm1h (GeneID 319468) | 1
no change with or without drug | 0 | -0.17 | inactive | Txndc17 (GeneID 52700) | 1
no change with or without drug | -0.11 | 0.84 | inactive | Acta2 (GeneID 11475) | 1
low cell count with and without drug | -2.14 | -2.19 | inactive | Acta2 (GeneID 11475) | 2
no change with or without drug | -0.79 | -1.01 | inactive | Tnfrsf21 (GeneID 94185) | 1
low cell count without drug only | 0.22 | -2.02 | inactive | Aurkaip1 (GeneID 66077) | 1
no change with or without drug | -1.91 | -1.18 | inactive | Mmp1b (GeneID 83996) | 1
no change with or without drug | 0.56 | 0.84 | inactive | Szt2 (GeneID 230676) | 1
no change with or without drug | -0.45 | -0.17 | inactive | Or6e1 (GeneID 18348) | 1
no change with or without drug | 1.12 | 1.52 | inactive | Prkcq (GeneID 18761) | 1
no change with or without drug | 0 | -0.84 | inactive | Pelp1 (GeneID 75273) | 1
no change with or without drug | 1.01 | 1.35 | inactive | Mslnl (GeneID 328783) | 1
no change with or without drug | 0.9 | 0.67 | inactive | Serpinb1a (GeneID 66222) | 1
no change with or without drug | -0.67 | -0.34 | inactive | Or4k6 (GeneID 258360) | 1
no change with or without drug | 0.34 | 1.18 | inactive | Lrrc42 (GeneID 77809) | 1
no change with or without drug | -0.56 | 0.34 | inactive | Prpf40a (GeneID 56194) | 1
no change with or without drug | -0.79 | 1.18 | inactive | Gapt (GeneID 238875) | 1
no change with or without drug | 0.45 | 0.84 | inactive | Hopx (GeneID 74318) | 1
no change with or without drug | -1.35 | -0.84 | inactive | Tcl1 (GeneID 21432) | 1
low cell count with doxorubicin only | -2.25 | 0.17 | active | Cbfa2t2 (GeneID 12396) | 1
no change with or without drug | -0.45 | 0.84 | inactive | Dazap1 (GeneID 70248) | 1
no change with or without drug | -0.22 | 1.85 | inactive | Il15ra (GeneID 16169) | 1
no change with or without drug | -0.34 | -0.51 | inactive | Dhfr (GeneID 13361) | 1
no change with or without drug | -0.11 | 0 | inactive | Ebf1 (GeneID 13591) | 1
no change with or without drug | 1.35 | 1.52 | inactive | Or2w1 (GeneID 18341) | 1
low cell count with doxorubicin only | -2.36 | -1.85 | active | Ift81 (GeneID 12589) | 1
no change with or without drug | -0.9 | 1.35 | inactive | Saraf (GeneID 67887) | 1
no change with or without drug | 0.45 | -0.51 | inactive | Npc2 (GeneID 67963) | 1
no change with or without drug | 0.79 | 0.84 | inactive | Epdr1 (GeneID 105298) | 1
no change with or without drug | -1.01 | -1.35 | inactive | Epdr1 (GeneID 105298) | 2
high cell count with and without drug | 2.81 | 2.87 | inactive | Rufy2 (GeneID 70432) | 1
no change with or without drug | 0.9 | -1.52 | inactive | Trim47 (GeneID 217333) | 1
no change with or without drug | 0.22 | 1.01 | inactive | Or6c8 (GeneID 258315) | 1
high cell count without drug only | 0.67 | 2.53 | inactive | Or6c8 (GeneID 258315) | 2
high cell count with doxorubicin only | 2.02 | -0.17 | inactive | Abhd16a (GeneID 193742) | 1
no change with or without drug | -0.67 | 0.67 | inactive | Or1m1 (GeneID 18322) | 1
no change with or without drug | -0.22 | -0.67 | inactive | Htr4 (GeneID 15562) | 1
no change with or without drug | 0.67 | 1.85 | inactive | Or8c10 (GeneID 404312) | 1
no change with or without drug | -1.24 | 0.84 | inactive | Med7 (GeneID 66213) | 1
no change with or without drug | -0.22 | 0.17 | inactive | Uba3 (GeneID 22200) | 1
no change with or without drug | -0.67 | -0.51 | inactive | Kctd15 (GeneID 233107) | 1
no change with or without drug | -1.69 | -1.69 | inactive | 4930583K01Rik (GeneID 67745) | 1
no change with or without drug | 0.22 | 0.84 | inactive | Acrbp (GeneID 54137) | 1
low cell count with and without drug | -6.52 | -3.2 | inactive | Ran (GeneID 19384) | 1
no change with or without drug | 0.67 | 0.51 | inactive | Brd10 (GeneID 240613) | 1
no change with or without drug | 0.9 | 0.17 | inactive | Drgx (GeneID 107751) | 1
no change with or without drug | -1.12 | 1.18 | inactive | Cyp2d13 (GeneID 68444) | 1
no change with or without drug | 0.67 | -0.84 | inactive | Gpx4 (GeneID 625249) | 1
no change with or without drug | -0.22 | 0.34 | inactive | Vcf1 (GeneID 28081) | 1
no change with or without drug | 1.57 | -0.51 | inactive | Pmfbp1 (GeneID 56523) | 1
no change with or without drug | 0.9 | 0.34 | inactive | Mrm2 (GeneID 68017) | 1
no change with or without drug | -1.8 | 0 | inactive | Serinc2 (GeneID 230779) | 1
no change with or without drug | 0 | 1.35 | inactive | Tmed11 (GeneID 67366) | 1
no change with or without drug | -0.67 | 1.18 | inactive | Asnsd1 (GeneID 70396) | 1
no change with or without drug | 0 | -0.51 | inactive | Sostdc1 (GeneID 66042) | 1
no change with or without drug | -1.12 | -1.85 | inactive | Drd5 (GeneID 13492) | 1
no change with or without drug | 1.35 | 0.51 | inactive | Ano1 (GeneID 101772) | 1
high cell count with doxorubicin only | 2.59 | 1.69 | inactive | Rab3gap1 (GeneID 226407) | 1
high cell count with doxorubicin only | 2.02 | 1.35 | inactive | Acadl (GeneID 11363) | 1
no change with or without drug | -0.67 | -1.85 | inactive | Il21r (GeneID 60504) | 1

Records above called active (3):
combined z-score class | viability z-score with doxorubicin | viability z-score without drug | Call | Target gene | pool no.
low cell count with doxorubicin only | -2.81 | -1.85 | active | Tmem109 (GeneID 68539) | 1
low cell count with doxorubicin only | -2.25 | 0.17 | active | Cbfa2t2 (GeneID 12396) | 1
low cell count with doxorubicin only | -2.36 | -1.85 | active | Ift81 (GeneID 12589) | 1
